PubChem BioAssay AID590 (National Center for Advancing Translational Sciences (NCATS), 2007)
Among all 59,000 compounds or so, about 6,500 (11%) were called active. Inconclusive means that the source gave no clear call. Such entries were picked first, then a sample of the others. Cut-off read from the data, not from the text of the source: active = max dye-equivalent concentration above about 10 nM; inconclusive = mostly about 1.1 nM to 9.6 nM; inactive = weaker than that.

Experiment: qHTS Assay for Spectroscopic Profiling in A350 Spectral Region
Settings: Compound autofluorescence, 340/450 nm, Alexa 350 dye-equivalents; hits give high values

Structure (SMILES) | max dye-equivalent concentration
CN(C)Cc1cn(CCC(=O)O)c2ccccc12 | inconclusive: 4.3 nM
COc1ccc(NC(=O)C2CC(c3ccc(OC)c(OC)c3)=NO2)cc1OC (stereo not given) | active: 26 nM
COc1ccc(NCc2c(O)ccc3ccccc23)cc1 | active: 12 nM
CCOC(=O)N1CCN(C(=O)CSCC(=O)Nc2nc(-c3ccc4c(c3)OCO4)cs2)CC1 | active: 110 nM
CN1CCN(c2ncc3nc(-c4ccccc4)c(=O)n(C4CC4)c3n2)CC1 | active: 360 nM
O=C1CC(c2ccc(F)cc2)Cc2nc(NCc3ccco3)ncc21 (stereo not given) | inactive
O=C(Cn1nnc(-c2ccccc2-n2cnnn2)n1)NCc1ccccc1 | inconclusive: 1.7 nM
COc1ccccc1-n1c(SCC(=O)Nc2nnc(C)s2)nc2c(c1=O)SCC2 | inconclusive: 3.3 nM
CCc1ccc2[nH]c(=O)c(CN(Cc3ccccc3)Cc3nnnn3Cc3ccco3)cc2c1 | inconclusive: 4.3 nM
CCOC(=O)c1ccc2[nH]c3c(c2c1)CCCCC3=O | inconclusive: 6.5 nM
O=C(COC(=O)CCCNC(=O)c1ccc(Cl)cc1)NC1CC1 | inconclusive: 1.5 nM
CCCCSc1nc(N)c(C#N)c(-c2cccs2)c1C#N | inconclusive: 7 nM
CCC(C)[C@H](N)c1nnc(SCc2cccc(F)c2)o1 (stereo not given in full) | inconclusive: 1.3 nM
Cc1ccc(C(=O)N2CCN(C)CC2)cc1S(=O)(=O)N1CCCCC1 | inactive
Nc1c2c(nc3ccn(-c4ccccc4)c(=O)c13)CCCCC2 | inconclusive: 6.1 nM
CCn1c(=O)cc(SCC(=O)NCc2cccnc2)c2ccccc21 | inconclusive: 1.5 nM
CN1CCc2nc(SCC(=O)Nc3ccc(F)cc3)c(C#N)cc2C1 | inconclusive: 5.3 nM
Cc1ccc(CCNC(=O)C2CCN(S(=O)(=O)N3CCC4(CC3)OCCO4)CC2)cc1 | inconclusive: 1.8 nM
O=c1oc2ccccc2c(O)c1/C=N/c1ncccn1 | inactive
COC(=O)c1cc(NC(=O)CCc2c(C)nc3ncnn3c2C)cc(C(=O)OC)c1 | inconclusive: 1.8 nM

Structure (SMILES) | max dye-equivalent concentration
CC(C)(C)c1onc(OCP(=O)(O)O)c1C[C@@H](N)C(=O)O | inactive
CCc1ccc(CCC(=O)Nc2nccs2)o1 | inactive
O=C1NC(c2cc3c(cc2Cl)OCO3)Oc2ccccc21 (stereo not given) | inconclusive: 1.3 nM
CCCCCCNC(=O)C(C#N)c1nc2ccccc2nc1N1CCCC1 (stereo not given) | active: 23 nM
COc1ccc(-n2c(=O)[nH]cc(C(=O)Nc3ccc4c(c3)OCCO4)c2=O)cc1 | inconclusive: 5.1 nM
COCCN1CN(S(=O)(=O)c2ccccc2)c2nc3ccccc3nc21 | active: 57 nM
NC(=O)C1CCCN(S(=O)(=O)c2ccc(Br)cc2)C1 (stereo not given) | inconclusive: 4.5 nM
c1ccc(-n2cnnc2SCc2nc3ccccc3s2)cc1 | inactive
Fc1ccccc1C(c1nnnn1Cc1ccc2c(c1)OCO2)N1CCN(Cc2ccccc2)CC1 (stereo not given) | inconclusive: 1.5 nM
CS(=O)(=O)N1CCC(NC(=O)Cc2ccccc2)CC1 | inactive
O/N=C(/CN(O)/C=C1/C=CC=N1)c1cccs1 | inactive
c1ccc(CCn2nnnc2C(c2cccs2)N2CCN(Cc3ccc4c(c3)OCO4)CC2)cc1 (stereo not given) | inactive
CCC1=C(C[C@H]2NCCc3ccccc32)C[C@@H]2c3cc(OC)c(OC)cc3CCN2C1 | inconclusive: 9.1 nM
CCOC(=O)N1CCN(C(=O)C2CCCN(c3ncnc4c3sc3cccc(F)c34)C2)CC1 (stereo not given) | inconclusive: 9.6 nM
CCCc1cc(=O)[nH]c(SC(CC)C(=O)Nc2ccccc2C#N)n1 (stereo not given) | inactive
CCC(C)C(=O)Nc1c2c(nc3c1CCC3)CCCC2 (stereo not given) | inconclusive: 1.4 nM
CCCCn1nnc(NC(=O)CC23CC4CC(CC(C4)C2)C3)n1 | inconclusive: 5 nM
CCCCn1c(Cc2ccccc2)n[nH]c1=S | inactive
CCOC(=O)C1=C(C)N=C2SCCC(=O)N2C1c1cccs1 (stereo not given) | inconclusive: 1.5 nM
COc1cc2c(cc1NCc1ccccn1)oc1ccccc12 | inactive

Look-ups from above:
Entry for `CCCCSc1nc(N)c(C#N)c(-c2cccs2)c1C#N` under max dye-equivalent concentration: inconclusive: 7 nM
Entry for `CCCc1cc(=O)[nH]c(SC(CC)C(=O)Nc2ccccc2C#N)n1` (stereo not given) under max dye-equivalent concentration: inactive
Entry for `CCC(C)[C@H](N)c1nnc(SCc2cccc(F)c2)o1` (stereo not given in full) under max dye-equivalent concentration: inconclusive: 1.3 nM
Entry for `Nc1c2c(nc3ccn(-c4ccccc4)c(=O)c13)CCCCC2` under max dye-equivalent concentration: inconclusive: 6.1 nM
Entry for `CC(C)(C)c1onc(OCP(=O)(O)O)c1C[C@@H](N)C(=O)O` under max dye-equivalent concentration: inactive

Additional records

Structure (SMILES) | max dye-equivalent concentration
CNc1ncncc1-c1ccccc1OC | inactive
Cc1ccc(N2C(N)=C(C#N)C(c3cccnc3)C3=C2CCCC3=O)cc1 (stereo not given) | inconclusive: 2.2 nM
CC(=O)OCCn1c(Br)nc2c1c(=O)[nH]c(=O)n2C | inconclusive: 1.7 nM
COc1cc(C)c(C)cc1S(=O)(=O)N1CCN(Cc2ccc3c(c2)OCO3)CC1 | active: 10 nM
CCn1c(=O)c2c(cnn2C)c2ccccc21 | inconclusive: 1.4 nM
CCOCCCNS(=O)(=O)c1ccc2c(c1)CCN2C(C)=O | inactive
CCCCn1c(C(C)O)nc2ccccc21 (stereo not given) | inactive
CCCCCCn1c(N2CCC(C)CC2)nc2c1c(=O)[nH]c(=O)n2C | inconclusive: 1.3 nM
Cc1cc(C)n(C(=O)CNC(=O)COc2ccccc2)n1 | inactive
Cc1noc(C)c1C(=O)N1CCC2(CC1)CCN(c1ccccn1)CC2 | inactive
Cc1cc2cc3c(=O)[nH]c(=O)[nH]c3nc2cc1C | active: 150 nM
CCn1c(=O)c(C2=NS(=O)(=O)c3ccccc3N2)c(O)c2ccccc21 | inconclusive: 2.7 nM
N#CCCn1c(=O)c(-c2ccccc2)nc2cnc(Oc3cccc(Cl)c3)nc21 | inconclusive: 4.4 nM
c1csc(-c2nn3c(C4COc5ccccc5O4)nnc3s2)c1 (stereo not given) | inactive
CCOc1ccc(C(=O)N(Cc2ccc(N(C)C)cc2)C2CCS(=O)(=O)C2)cc1 (stereo not given) | inconclusive: 1.3 nM
COc1cccc(-c2cc(C(F)(F)F)n3nc(N)nc3n2)c1 | inactive
Cc1cc2nc([C@H](C)C(=O)c3ccc(Cl)cc3)c(=O)[nH]c2cc1C | inconclusive: 5.8 nM
CC1=CC(c2ccccc2)n2nc(N3C(=O)c4ccccc4C3=O)nc2N1 (stereo not given) | inconclusive: 6.5 nM
Cc1cc2oc(=O)cc(C)c2cc1NC(=O)CCC(=O)O | active: 15 nM
CC(C)(C)CC(C)(C)c1cc(O)c(O)c(CN2CCCCC2)c1 | inactive
